Measured values reported in US6667311B2, “Nitrogen substituted biaryl purine derivatives as potent antiproliferative agents” (Albany Molecular Research, Inc., priority 2001, dated 2003).
For at least one compound, name, drawing or mass did not settle the structure.

These compounds were tested on Tumor Cells in Hollow Fibers (assay: NCI Hollow Fiber Assay). Conditions: Y/N.
Assay type: in vivo

| SMILES | Cell Kill |
| --- | --- |
| CC(C)n1cnc2c(NCc3ccc(-c4ccccc4)nc3)nc(N[C@H]3CC[C@H](N)CC3)nc21 [Compound 86] | Y |
| CC(C)n1cnc2c(NCc3ccc(-c4cccnc4)cc3)nc(N[C@H]3CC[C@H](N)CC3)nc21 [Compound 103] | Y |
| CC(=O)N[C@H]1CC[C@H](Nc2nc(NCc3ccc(-c4ccsc4)nc3)c3ncn(C(C)C)c3n2)CC1 [Compound 124] | Y |
| CC(=O)N[C@H]1CC[C@H](Nc2nc(NCc3ccc(-c4ccccc4)nc3)c3ncn(C(C)C)c3n2)CC1 [Compound 87] | Y |
| CC(=O)N[C@H]1CC[C@H](Nc2nc(NCc3ccc(-c4cccc(Cl)c4)cc3)c3ncn(C(C)C)c3n2)CC1 [Compound 110] | Y |
| CC(C)n1cnc2c(NCc3ccc(-c4ccccn4)nc3)nc(N[C@H]3CC[C@H](N)CC3)nc21 [Compound 93] | Y |
| CC(=O)N[C@H]1CC[C@H](Nc2nc(NCc3ccc(-c4cccs4)cc3)c3ncn(C(C)C)c3n2)CC1 [Compound 112] | Y |
